Laboratory results reported in PubChem BioAssay AID256 (DTP/NCI, 2004).
The list shows only some results of the screen, not a fair sample: it is rich in T/C values a quarter to a half above the control, in often repeated tests (any T/C) and in doses without a T/C. Other doses and runs of a compound stand elsewhere. T/C gives the treated animals as a percentage of the vehicle group. Some entries give survivors of the animals treated and no T/C: the source files T/C as zero there, which appears to mark a toxic dose or a test without result, not a measured value. Some survivor counts are full or nearly so, which does not show that the dose was tolerated: survival well below the control is almost never listed, so the zero probably covers shortened survival too. Survivors were counted at the toxicity check, usually on the fifth day, unless a day is given; later deaths do not show. Schedule codes are those of the source, read here as Q, the interval in days (D) or hours (H), X, the number of doses. Some entries were tested several times; their values stand side by side, smallest first. For survival time, this PubChem deposit counts one and a half times the control or more as active, and values a quarter to a half above the control carry no call in these data; other NCI protocols may use other cut-offs. Some structures stand for samples that the source files as different forms (salt, stereo form or complex); doses refer to the form tested.

Tested on: CD2F1 mice, L1210 leukemia ip, survival T/C
Test: NCI In Vivo Anticancer Drug Screen. Data for tumor model L1210 Leukemia (intraperitoneal) in CD2F1 (CDF1) mice
Conditions: higher T/C = longer survival
Procedure, shortened: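 Read-out first: treated-group measurement over vehicle-control measurement, expressed as a ratio. Animals bore a transplanted tumor line and were dosed with compound or vehicle.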

[1] = T/C endpoint: mean survival time, dose: 0.5 mg/kg/injection, schedule: Q01DX009 (ip), vehicle: saline
[2] = T/C endpoint: mean survival time, dose: 4.0 mg/kg/injection, schedule: Q04DX003 (ip), vehicle: saline
[3] = T/C endpoint: mean survival time, dose: 200.0 mg/kg/injection, schedule: Q04DX003 (ip), vehicle: saline with Tween-80
[4] = T/C endpoint: mean survival time, dose: 400.0 mg/kg/injection, schedule: Q04DX003 (ip), vehicle: saline with Tween-80

C1CN1c1nc(N2CC2)nc(N2CC2)n1
survivor count (T/C endpoint: mean survival time, dose: 0.25 mg/kg/injection, schedule: Q01DX009 (ip), vehicle: saline): 5 of 6
T/C (T/C endpoint: mean survival time, dose: 0.25 mg/kg/injection, schedule: Q03HX008 (ip), vehicle: saline): 135 % of control
T/C (T/C endpoint: mean survival time, dose: 0.25 mg/kg/injection, schedule: Q03HX016 (ip), vehicle: saline): 133 and 134 % of control
T/C [1]: 135 and 137 % of control
survivor count [1]: 4 of 6
T/C (T/C endpoint: mean survival time, dose: 0.5 mg/kg/injection, schedule: Q03DX003 (ip), vehicle: saline): 136 % of control
T/C (T/C endpoint: mean survival time, dose: 0.5 mg/kg/injection, schedule: Q03HX016 (ip), vehicle: saline): 140 % of control
T/C (T/C endpoint: mean survival time, dose: 0.5 mg/kg/injection, schedule: Q04DX003 (ip), vehicle: saline, evaluated on day 30): 111, 126, 129, 135, 138, 149, 177, 181, 216 % of control
T/C (T/C endpoint: mean survival time, dose: 0.5 mg/kg/injection, schedule: Q04DX003 (ip), vehicle: saline, evaluated on day 60): 134 % of control
T/C (T/C endpoint: mean survival time, dose: 1.0 mg/kg/injection, schedule: Q01DX001 (ip), vehicle: saline, evaluated on day 5): 130 % of control
T/C (T/C endpoint: mean survival time, dose: 1.0 mg/kg/injection, schedule: Q01DX001 (ip), vehicle: saline, evaluated on day 6): 132 % of control
T/C (T/C endpoint: mean survival time, dose: 1.0 mg/kg/injection, schedule: Q04DX003 (ip), vehicle: saline, evaluated on day 30): 133, 140, 151, 159, 160, 195, 196, 223 % of control
T/C (T/C endpoint: mean survival time, dose: 1.0 mg/kg/injection, schedule: Q04DX003 (ip), vehicle: saline, evaluated on day 60): 163 % of control
survivor count (T/C endpoint: mean survival time, dose: 1.0 mg/kg/injection, schedule: Q04DX003 (ip), vehicle: saline): 3 of 6
T/C (T/C endpoint: mean survival time, dose: 2.0 mg/kg/injection, schedule: Q01DX001 (ip), vehicle: saline): 142 % of control
survivor count (T/C endpoint: mean survival time, dose: 2.0 mg/kg/injection, schedule: Q01DX005 (ip), vehicle: saline): 10 of 10
survivor count (T/C endpoint: mean survival time, dose: 2.0 mg/kg/injection, schedule: Q01DX007 (ip), vehicle: saline): 6 of 6
survivor count (T/C endpoint: mean survival time, dose: 2.0 mg/kg/injection, schedule: Q01DX009 (ip), vehicle: saline): 4 of 6
T/C (T/C endpoint: mean survival time, dose: 2.0 mg/kg/injection, schedule: Q04DX003 (ip), vehicle: saline, evaluated on day 30): 90, 94, 112, 117, 140, 143, 151, 153 % of control
T/C (T/C endpoint: mean survival time, dose: 2.0 mg/kg/injection, schedule: Q04DX003 (ip), vehicle: saline, evaluated on day 60): 153 % of control
survivor count (T/C endpoint: mean survival time, dose: 2.0 mg/kg/injection, schedule: Q04DX003 (ip), vehicle: saline): 6 of 6
T/C [2]: 103 % of control
survivor count [2]: 0 of 6, 1 of 6, 3 of 6, 7 of 10, 5 of 6, 6 of 6
T/C (T/C endpoint: mean survival time, dose: 250.0 micrograms/kg/injection, schedule: Q01DX009 (ip), vehicle: saline): 142 % of control
survivor count (T/C endpoint: mean survival time, dose: 500.0 micrograms/kg/injection, schedule: Q01DX009 (ip), vehicle: saline): 5 of 6
survivor count (T/C endpoint: mean survival time, dose: 1000.0 micrograms/kg/injection, schedule: Q01DX009 (ip), vehicle: saline): 5 of 6
survivor count (T/C endpoint: mean survival time, dose: 2000.0 micrograms/kg/injection, schedule: Q01DX009 (ip), vehicle: saline): 3 of 6
T/C (T/C endpoint: median survival time, dose: 0.25 mg/kg/injection, schedule: Q01DX009 (ip), vehicle: saline): 128 % of control
survivor count (T/C endpoint: median survival time, dose: 2.0 mg/kg/injection, schedule: Q01DX009 (ip), vehicle: saline): 5 of 6 and 6 of 6

O=C(NNC(=S)Nc1cccc(C(F)(F)F)c1)c1ccncc1
survivor count (T/C endpoint: mean survival time, dose: 50.0 mg/kg/injection, schedule: Q01DX009 (ip), vehicle: saline with Tween-80): 3 of 3
survivor count (T/C endpoint: mean survival time, dose: 100.0 mg/kg/injection, schedule: Q01DX009 (ip), vehicle: saline with Tween-80): 3 of 3
survivor count (T/C endpoint: mean survival time, dose: 200.0 mg/kg/injection, schedule: Q01DX009 (ip), vehicle: saline with Tween-80): 3 of 3
survivor count (T/C endpoint: mean survival time, dose: 400.0 mg/kg/injection, schedule: Q04DX002 (ip), vehicle: saline with Tween-80): 2 of 3

CCOC(=O)C([NH-])C([NH-])C(=O)OCC.[Cl][Pt+2][Cl] (stereo not drawn)
T/C (T/C endpoint: mean survival time, dose: 6.25 mg/kg/injection, schedule: Q04DX003 (ip), vehicle: saline with Tween-80): 137 % of control

CCCCCCCCCCCC[S+](C)C
survivor count (T/C endpoint: mean survival time, dose: 80.0 mg/kg/injection, schedule: Q04DX003 (ip), vehicle: Klucel (hydroxypropylcellulose) (HPC)): 0 of 6

CC1=C/C(=C/c2ccccc2)CC(C)(C)C1 (tested in a mixture with another compound)
survivor count [3]: 6 of 6
survivor count [4]: 5 of 6

CCCCCCCCC(C)C(=O)N1CCCC1C(=O)N1C(CC(=O)CC)CC(C)CC1C(=O)NC(C)C(=O)NC(C)(C)C(=O)NC(C)(C)C(=O)NC(C(=O)NC(C)C(=O)NC(C)(C)C(=O)NC(C)(C)C(=O)NC(C)CN(C)CCO)C(C)CC (stereo not drawn)
survivor count (T/C endpoint: mean survival time, dose: 5.0 mg/kg/injection, schedule: Q01DX009 (ip), vehicle: Klucel (hydroxypropylcellulose) (HPC)): 1 of 10
survivor count (T/C endpoint: mean survival time, dose: 10.0 mg/kg/injection, schedule: Q01DX009 (ip), vehicle: Klucel (hydroxypropylcellulose) (HPC)): 0 of 10

CC(=O)OC1CCCC2=CC(=O)CCC21C (stereo not drawn)
survivor count [4]: 0 of 3

O=C(NC(=O)c1cn(C2OC(CO)C(O)C2O)nn1)Nc1ccc(Cl)cc1 (stereo not drawn)
survivor count (T/C endpoint: mean survival time, dose: 25.0 mg/kg/injection, schedule: Q01DX005 (ip), vehicle: other): 6 of 6
survivor count (T/C endpoint: mean survival time, dose: 100.0 mg/kg/injection, schedule: Q01DX005 (ip), vehicle: other): 3 of 6
survivor count (T/C endpoint: mean survival time, dose: 200.0 mg/kg/injection, schedule: Q01DX005 (ip), vehicle: other): 0 of 6

COC(=O)C1(N)CCCC1
T/C (T/C endpoint: mean survival time, dose: 50.0 mg/kg/injection, schedule: Q01DX009 (ip), vehicle: saline): 125 % of control
T/C (T/C endpoint: mean survival time, dose: 100.0 mg/kg/injection, schedule: Q01DX009 (ip), vehicle: saline): 131 % of control
T/C (T/C endpoint: mean survival time, dose: 200.0 mg/kg/injection, schedule: Q04DX003 (ip), vehicle: saline): 128 % of control
T/C [4]: 138 % of control
T/C (T/C endpoint: mean survival time, dose: 400.0 mg/kg/injection, schedule: Q04DX003 (ip), vehicle: saline): 136 % of control

CC#CC(=O)SCCNC(=O)CCNC(=O)CC(C)(C)C
survivor count [3]: 2 of 6

CC(=O)OCCCC(C)Nc1ccnc2cc(Cl)ccc12 (stereo not drawn)
survivor count [4]: 2 of 6

CCN(CC)c1cc(Cl)ccc1Cl
survivor count (T/C endpoint: mean survival time, dose: 100.0 mg/kg/injection, schedule: Q04DX002 (ip), vehicle: saline with Tween-80): 0 of 3
survivor count (T/C endpoint: mean survival time, dose: 200.0 mg/kg/injection, schedule: Q01DX001 (ip), vehicle: saline with Tween-80): 3 of 6
survivor count (T/C endpoint: mean survival time, dose: 400.0 mg/kg/injection, schedule: Q01DX001 (ip), vehicle: saline with Tween-80): 2 of 6

CCSC(C(O)C(O)C(O)C(O)CO)n1cnc2c(=S)nc[nH]c21 (stereo not drawn)
T/C (T/C endpoint: mean survival time, dose: 400.0 mg/kg/injection, schedule: Q01DX009 (ip), vehicle: saline with Tween-80): 130 % of control

COC(=O)c1ccc(N=NN(C)C)cc1
T/C (T/C endpoint: mean survival time, dose: 108.0 mg/kg/injection, schedule: Q01DX009 (ip), vehicle: Klucel (hydroxypropylcellulose) (HPC)): 133 % of control

Nc1ccc(Nc2ccccc2C(=O)O)cc1
survivor count [4]: 1 of 6

O=C(NCCCCCCCCCCNC(=O)Nc1ccc(C2=NCCCN2)cc1)Nc1ccc(C2=NCCCN2)cc1
T/C (T/C endpoint: mean survival time, dose: 12.0 mg/kg/injection, schedule: Q01DX009 (ip), vehicle: saline): 130 % of control
survivor count (T/C endpoint: mean survival time, dose: 29.0 mg/kg/injection, schedule: Q01DX009 (ip), vehicle: saline): 0 of 6
